The values below come from publication PMC12402451.

These are yes or no findings as the source states them, for the method shown.

The target of this assay is ThomasA^31-1167 (Thomasclavelia ramosa) (UniProt Q9AES2). Put plainly: SEC-SAXS; 50 uL of protein at 2 mg mL^-1 on a Superdex 200 Increase 3.2 column, 50 mM Tris-HCl pH 7.5, 100 mM NaCl, 2% v/v glycerol; molecular weight from the SAXS data; both purified. Background: Size exclusion chromatography separates by hydrodynamic size, large species first.

Turning to “ThomasA^31-1167 (from UniProt Q9AES2 31-1167) (enzyme)”, the binding entry is given as “no binding (tested: 2 mg mL^-1 injected)”.
